Source: the supplement of paper PMC10077471
Over roughly 1,900 compounds, “excess over highest single agent (ExcessHSA) synergy score, 6x6 matrix” has its median near -83; the lowest 2% begin near -370. The list shows a part of the results.

Test system: NCI-H446
Experiment: excess over highest single agent (ExcessHSA) synergy score, 6x6 matrix; higher = less synergy (more negative = stronger synergy)
Details: 72 h; CellTiter-Glo viability

Compound	excess over highest single agent
Cc1cnc(-c2cc(N3CCN(C(=O)CCS(C)(=O)=O)CC3)ncc2Cl)c(C)c1 + Cc1sc2c(c1C)C(c1ccc(Cl)cc1)=N[C@@H](CC(=O)OC(C)(C)C)c1nnc(C)n1-2 [NCGC00250412-19]	125
CC[C@@]1(O)C[C@H](O[C@H]2C[C@H](N(C)C)[C@H](O[C@H]3C[C@H](O)[C@H](O[C@H]4CCC(=O)[C@H](C)O4)[C@H](C)O3)[C@H](C)O2)c2c(cc3c(c2O)C(=O)c2c(O)cccc2C3=O)[C@H]1C(=O)OC + Cc1sc2c(c1C)C(c1ccc(Cl)cc1)=N[C@@H](CC(=O)OC(C)(C)C)c1nnc(C)n1-2 [NCGC00250412-19]	-283
Cc1c(CN2CCN(C(=O)[C@H](C)O)CC2)sc2c(N3CCOCC3)nc(-c3cnc(N)nc3)nc12 + Cc1sc2c(c1C)C(c1ccc(Cl)cc1)=N[C@@H](CC(=O)OC(C)(C)C)c1nnc(C)n1-2 [NCGC00250412-19]	-434
CN1CCc2c(c3ccccc3n2Cc2ccc(C(=O)NO)cc2)C1 + Cc1sc2c(c1C)C(c1ccc(Cl)cc1)=N[C@@H](CC(=O)OC(C)(C)C)c1nnc(C)n1-2 [NCGC00250412-19]	16
CS(=O)(=O)OCCCCOS(C)(=O)=O + Cc1sc2c(c1C)C(c1ccc(Cl)cc1)=N[C@@H](CC(=O)OC(C)(C)C)c1nnc(C)n1-2 [NCGC00250412-19]	-43.8
O=C(/C=C/c1ccc(O)cc1)c1ccc(O)cc1O + Cc1sc2c(c1C)C(c1ccc(Cl)cc1)=N[C@@H](CC(=O)OC(C)(C)C)c1nnc(C)n1-2 [NCGC00250412-19]	-121
CC(=O)N(C)c1cccc(-c2ccnc3c(C(=O)c4cccs4)cnn23)c1 + Cc1sc2c(c1C)C(c1ccc(Cl)cc1)=N[C@@H](CC(=O)OC(C)(C)C)c1nnc(C)n1-2 [NCGC00250412-19]	23
C[C@H](NCc1ccc2c(c1)nc(NC(=O)c1ccc(-c3cn[nH]c3)s1)n2CCc1ccccc1)C(C)(C)C + Cc1sc2c(c1C)C(c1ccc(Cl)cc1)=N[C@@H](CC(=O)OC(C)(C)C)c1nnc(C)n1-2 [NCGC00250412-19]	-305
N#CCNC(=O)c1ccc(-c2ccnc(Nc3ccc(N4CCOCC4)cc3)n2)cc1 + Cc1sc2c(c1C)C(c1ccc(Cl)cc1)=N[C@@H](CC(=O)OC(C)(C)C)c1nnc(C)n1-2 [NCGC00250412-19]	271
COCCNCCCn1c(C(=O)CF)c(-c2ccc(C)cc2)c2c(N)ncnc21 + Cc1sc2c(c1C)C(c1ccc(Cl)cc1)=N[C@@H](CC(=O)OC(C)(C)C)c1nnc(C)n1-2 [NCGC00250412-19]	128
CC1(C)CC(O)CC(C)(C)N1[O] + Cc1sc2c(c1C)C(c1ccc(Cl)cc1)=N[C@@H](CC(=O)OC(C)(C)C)c1nnc(C)n1-2 [NCGC00250412-19]	-67.7
O=C(O)c1nc(=O)[nH]c(=O)[nH]1 + Cc1sc2c(c1C)C(c1ccc(Cl)cc1)=N[C@@H](CC(=O)OC(C)(C)C)c1nnc(C)n1-2 [NCGC00250412-19]	-48.1
CN(C)CCCN=c1c2ccccc2n(C)c2[nH]c(=O)n(C)c(=O)c12 + Cc1sc2c(c1C)C(c1ccc(Cl)cc1)=N[C@@H](CC(=O)OC(C)(C)C)c1nnc(C)n1-2 [NCGC00250412-19]	-34.1
NC(=O)Nc1cc(-c2ccc(CN3CCOCC3)cc2)sc1C(N)=O + Cc1sc2c(c1C)C(c1ccc(Cl)cc1)=N[C@@H](CC(=O)OC(C)(C)C)c1nnc(C)n1-2 [NCGC00250412-19]	-229
Cc1ncc(-c2ccnc(Nc3ccc(S(C)(=O)=O)cc3)n2)n1C(C)C + Cc1sc2c(c1C)C(c1ccc(Cl)cc1)=N[C@@H](CC(=O)OC(C)(C)C)c1nnc(C)n1-2 [NCGC00250412-19]	-28.3
COc1c(N2C[C@@H]3CCCN[C@@H]3C2)c(F)cc2c(=O)c(C(=O)O)cn(C3CC3)c12 + Cc1sc2c(c1C)C(c1ccc(Cl)cc1)=N[C@@H](CC(=O)OC(C)(C)C)c1nnc(C)n1-2 [NCGC00250412-19]	41
CC1(C)CCC[C@]2(C)[C@H]3CC(=O)O[C@]3(C)CC[C@@H]12 + Cc1sc2c(c1C)C(c1ccc(Cl)cc1)=N[C@@H](CC(=O)OC(C)(C)C)c1nnc(C)n1-2 [NCGC00250412-19]	-54.6
COc1ncnc(NS(=O)(=O)c2ccc(N)cc2)c1OC + Cc1sc2c(c1C)C(c1ccc(Cl)cc1)=N[C@@H](CC(=O)OC(C)(C)C)c1nnc(C)n1-2 [NCGC00250412-19]	-98.9
Cc1ccccc1C(=O)c1ccc(Nc2ccc(Br)cc2N)cc1Cl + Cc1sc2c(c1C)C(c1ccc(Cl)cc1)=N[C@@H](CC(=O)OC(C)(C)C)c1nnc(C)n1-2 [NCGC00250412-19]	-45.5
COc1ccc(C(=O)CC(=O)c2ccc(C(C)(C)C)cc2)cc1 + Cc1sc2c(c1C)C(c1ccc(Cl)cc1)=N[C@@H](CC(=O)OC(C)(C)C)c1nnc(C)n1-2 [NCGC00250412-19]	-86.4
CC1(C)SCCN(S(=O)(=O)c2ccc(OCC#CCO)cc2)[C@H]1C(=O)NO + Cc1sc2c(c1C)C(c1ccc(Cl)cc1)=N[C@@H](CC(=O)OC(C)(C)C)c1nnc(C)n1-2 [NCGC00250412-19]	50
Nc1nc2c(ncn2COCCO)c(=O)[nH]1 + Cc1sc2c(c1C)C(c1ccc(Cl)cc1)=N[C@@H](CC(=O)OC(C)(C)C)c1nnc(C)n1-2 [NCGC00250412-19]	77.6
Cc1cc(N2CCOCC2)cc2[nH]c(-c3c(NC[C@@H](O)c4cccc(Cl)c4)cc[nH]c3=O)nc12 + Cc1sc2c(c1C)C(c1ccc(Cl)cc1)=N[C@@H](CC(=O)OC(C)(C)C)c1nnc(C)n1-2 [NCGC00250412-19]	-315
CS(=O)(=O)N1CCN(Cc2cc3nc(-c4cccc5[nH]ncc45)nc(N4CCOCC4)c3s2)CC1 + Cc1sc2c(c1C)C(c1ccc(Cl)cc1)=N[C@@H](CC(=O)OC(C)(C)C)c1nnc(C)n1-2 [NCGC00250412-19]	-276
CC(C)NCC(O)c1ccc(O)c(O)c1 (stereo not given) + Cc1sc2c(c1C)C(c1ccc(Cl)cc1)=N[C@@H](CC(=O)OC(C)(C)C)c1nnc(C)n1-2 [NCGC00250412-19]	-158

For convenience, some entries already given:
Compound	excess over highest single agent
CN1CCc2c(c3ccccc3n2Cc2ccc(C(=O)NO)cc2)C1 + Cc1sc2c(c1C)C(c1ccc(Cl)cc1)=N[C@@H](CC(=O)OC(C)(C)C)c1nnc(C)n1-2 [NCGC00250412-19]	16
CS(=O)(=O)OCCCCOS(C)(=O)=O + Cc1sc2c(c1C)C(c1ccc(Cl)cc1)=N[C@@H](CC(=O)OC(C)(C)C)c1nnc(C)n1-2 [NCGC00250412-19]	-43.8
